Data reported in US5416191A, “Bradykinin antagonists” (Cortech, Inc., priority 1993, dated 1995).
Not every detail of the peptide structures is certain; ends, links or a residue may be inferred. Peptide text beside a SMILES is read from it.

How the values were obtained:
[1] = target: T1, bradykinin receptor of the B2 class (rat uterus) (Rattus norvegicus, UniProt P25023); experiment: Rat uterus (RU) in vitro, antagonism of bradykinin; settings: Table D footnote; at 80 minutes
T1 construct: concentration effect curves to bradykinin (BK) on rat uterus in vitro; from tissue; host or cells: rat uterus
T1 sequence (P25023 1-396): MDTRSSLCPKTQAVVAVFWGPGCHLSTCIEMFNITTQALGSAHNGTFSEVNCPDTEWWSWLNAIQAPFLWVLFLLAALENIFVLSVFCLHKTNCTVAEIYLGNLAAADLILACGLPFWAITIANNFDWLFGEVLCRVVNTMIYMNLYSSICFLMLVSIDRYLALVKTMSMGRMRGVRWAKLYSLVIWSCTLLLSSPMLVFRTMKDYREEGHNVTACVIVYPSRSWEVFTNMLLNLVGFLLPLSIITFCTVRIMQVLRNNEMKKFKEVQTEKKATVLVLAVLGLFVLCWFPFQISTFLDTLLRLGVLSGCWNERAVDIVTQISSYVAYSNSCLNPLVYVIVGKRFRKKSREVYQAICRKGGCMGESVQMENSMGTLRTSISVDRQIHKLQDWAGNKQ
Experimental: Thus in vitro studies were performed on standard assay systems, namely, guinea-pig ileum (GPI), rat uterus (RU) and rabbit jugular vein (RJV). […] The PA2 can be defined as the negative logarithm of the molar concentration of the antagonist in the presence of which the potency of the agonist is reduced two-fold, i.e. twice the amount of agonist is required to produce a given response in the presence of, than in the absence of, the antagonist. A high potency of antagonism is indicated by a high PA2 value, i.e., a low concentration of antagonist is effective.
The percentage recovery (% Rec) was also determined for compounds with respect to each assay.
With respect to duration of activity, it is noted that after exposure to the highest concentration of antagonist, each tissue was washed extensively and then assessed for recovery from the antagonist effect.
Potency in the rat uterus assay was assessed as described above and PA2 values determined.

[2] = system: bradykinin-induced vascular permeability; experiment: Rabbit skin vascular permeability (Evans Blue, intradermal bradykinin); assay type: in vivo; settings: pre-injected 15 or 30 minutes before bradykinin in the same site, FIGS. 2B/2C
Experimental: In these experiments, two protocols were used. The first protocol used the classical assay in which bradykinin was injected intradermally either alone or in combination with the compound under investigation following intravenous administration of Evans Blue dye. Thirty minutes after intradermal injection of bradykinin with and without the compound, the animal was killed, its skin removed and the area of "blueing" (i.e., vascular permeability or edema) measured.
The second protocol involved pre-injecting the test compound either 15 or 30 minutes before injecting bradykinin in the same site. The results are shown in FIGS. 2B and 2C, respectively.

[3] = system: bradykinin-induced hypotension; experiment: Bradykinin-induced hypotension in the anesthetized rat; assay type: in vivo
LPS-induced hypotension = experiment: Lipopolysaccharide (LPS) induced hypotension in the anesthetized rat; assay type: in vivo; settings: 50 μg/kg/min i.v. 60 minutes before, during and after LPS 15 mg kg^-1; FIG. 4
[4] = system: bradykinin-induced pain response; experiment: Pain response to intra-arterial bradykinin in conscious rats; assay type: in vivo, rat; settings: single S.C. injection 10 mg/kg

Compound	Reversibility of antagonism [1]	Inhibition of bradykinin-induced vascular permeability, pre-injected [2]	Time to full recovery of bradykinin responses after stopping the infusion ([3]; after i.v. infusion 25 μg kg^-1 min^-1)	Inhibition of hypotensive response to bradykinin ([3]; intravenous infusion 25 μg kg^-1 min^-1, bradykinin 4×10^-9 moles, FIG. 3)	Block of blood pressure response to BK ([3]; single dose 10 mg/kg S.C., BK ED50 at 15 minute intervals, FIG. 5b)	Duration of block of blood pressure and pain responses to BK ([3]; single dose 10 mg/kg S.C., duration of the experiments)	Effect on LPS-induced drop in mean arterial blood pressure (LPS-induced hypotension)	Effect on pain response to intra-arterial BK ([4]; BK 20 nmoles/kg, FIG. 6)	Duration of inhibition of pain response ([4]; duration of the experiment)
CC(C)C[C@H](NC(=O)[C@@H](Cc1ccccc1)NC(=O)[C@H](CSC1CC(=O)N(CCCCCCCCCCCCN2C(=O)CC(SC[C@H](NC(=O)[C@H](Cc3ccccc3)NC(=O)CNC(=O)[C@@H]3C[C@@H](O)CN3C(=O)[C@@H]3CCCN3C(=O)[C@H](CCCNC(=N)N)NC(=O)[C@H](N)CCCNC(=N)N)C(=O)N[C@H](Cc3ccccc3)C(=O)N[C@@H](CC(C)C)C(=O)N[C@@H](CCCNC(=N)N)C(=O)O)C2=O)C1=O)NC(=O)[C@H](Cc1ccccc1)NC(=O)CNC(=O)[C@@H]1C[C@@H](O)CN1C(=O)[C@@H]1CCCN1C(=O)[C@H](CCCNC(=N)N)NC(=O)[C@H](N)CCCNC(=N)N)C(=O)N[C@@H](CCCNC(=N)N)C(=O)O (stereo partly drawn) [CP-0166] (HELM PEPTIDE1{[dR].R.P.[Hyp].G.F.C.[dF].L.R}|PEPTIDE2{[dR].R.P.[Hyp].G.F.C.[dF].L.R}|CHEM1{[O=C1CC([*:1])C(=O)N1CCCCCCCCCCCCN1C(=O)CC([*:2])C1=O]}$PEPTIDE1,CHEM1,7:R3-1:R1|PEPTIDE2,CHEM1,7:R3-1:R2$$$V2.0)	IRREVERSIBLE	–	–	–	–	–	–	–	–
CC(C)C[C@H](NC(=O)[C@@H](Cc1ccccc1)NC(=O)[C@H](CSC1CC(=O)N(CCCCCCN2C(=O)CC(SC[C@H](NC(=O)[C@H](Cc3ccccc3)NC(=O)CNC(=O)[C@@H]3C[C@@H](O)CN3C(=O)[C@@H]3CCCN3C(=O)[C@H](CCCNC(=N)N)NC(=O)[C@H](N)CCCNC(=N)N)C(=O)N[C@H](Cc3ccccc3)C(=O)N[C@@H](CC(C)C)C(=O)N[C@@H](CCCNC(=N)N)C(=O)O)C2=O)C1=O)NC(=O)[C@H](Cc1ccccc1)NC(=O)CNC(=O)[C@@H]1C[C@@H](O)CN1C(=O)[C@@H]1CCCN1C(=O)[C@H](CCCNC(=N)N)NC(=O)[C@H](N)CCCNC(=N)N)C(=O)N[C@@H](CCCNC(=N)N)C(=O)O (stereo partly drawn) [CP-0127] (HELM PEPTIDE1{[dR].R.P.[Hyp].G.F.C.[dF].L.R}|PEPTIDE2{[dR].R.P.[Hyp].G.F.C.[dF].L.R}|CHEM1{[O=C1CC([*:1])C(=O)N1CCCCCCN1C(=O)CC([*:2])C1=O]}$PEPTIDE1,CHEM1,7:R3-1:R1|PEPTIDE2,CHEM1,7:R3-1:R2$$$V2.0)	–	totally inhibited responses to bradykinin	approximately 20 minutes	almost totally inhibited responses	totally blocked	at least 2 hours	significant attenuation of the immediate drop in blood pressure	totally abolished the response to BK	approximately 2 hours
